Source: paper PMC4638101
No constants are given. Whether binding was seen depends on the method and setting. For some assays here: Binding seen in cells or lysates may run through a third protein. For some assays here: Binding can be weak; no strength is given. For some assays here: Where a sequence is shown, tags or fusion partners need not be part of it.

T1: CP190-V5 (Drosophila) (UniProt Q24478)
T1 sequence: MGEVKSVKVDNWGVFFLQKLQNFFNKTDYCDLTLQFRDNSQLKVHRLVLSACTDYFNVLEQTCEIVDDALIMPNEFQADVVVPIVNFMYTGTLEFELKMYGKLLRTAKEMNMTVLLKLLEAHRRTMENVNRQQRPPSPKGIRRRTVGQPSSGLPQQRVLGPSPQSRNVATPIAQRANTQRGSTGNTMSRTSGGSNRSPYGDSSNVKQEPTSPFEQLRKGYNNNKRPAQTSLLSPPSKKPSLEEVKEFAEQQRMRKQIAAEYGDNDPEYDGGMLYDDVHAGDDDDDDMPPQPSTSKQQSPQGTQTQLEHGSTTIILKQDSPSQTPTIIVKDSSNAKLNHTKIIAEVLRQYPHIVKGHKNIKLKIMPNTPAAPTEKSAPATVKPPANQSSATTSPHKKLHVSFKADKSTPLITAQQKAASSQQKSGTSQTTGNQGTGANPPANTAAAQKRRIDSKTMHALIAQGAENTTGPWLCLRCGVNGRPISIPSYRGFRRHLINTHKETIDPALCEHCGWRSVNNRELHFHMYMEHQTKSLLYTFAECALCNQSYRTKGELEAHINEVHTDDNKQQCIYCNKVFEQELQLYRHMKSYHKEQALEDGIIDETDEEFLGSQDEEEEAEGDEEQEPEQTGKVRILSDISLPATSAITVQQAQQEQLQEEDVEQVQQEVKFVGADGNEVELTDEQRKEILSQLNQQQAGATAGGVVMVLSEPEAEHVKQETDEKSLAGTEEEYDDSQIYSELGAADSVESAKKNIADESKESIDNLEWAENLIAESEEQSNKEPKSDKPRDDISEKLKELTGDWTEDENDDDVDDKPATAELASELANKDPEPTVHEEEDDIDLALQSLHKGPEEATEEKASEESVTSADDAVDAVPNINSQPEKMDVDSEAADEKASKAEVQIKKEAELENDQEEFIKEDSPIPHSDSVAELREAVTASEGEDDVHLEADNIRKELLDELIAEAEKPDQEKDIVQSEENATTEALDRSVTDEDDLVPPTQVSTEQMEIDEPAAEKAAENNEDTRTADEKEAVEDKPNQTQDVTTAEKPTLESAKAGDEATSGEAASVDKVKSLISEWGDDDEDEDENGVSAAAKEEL

T2: Mod(mdg4)-67.2-V5 (Drosophila) (UniProt Q86B87)
T2 sequence: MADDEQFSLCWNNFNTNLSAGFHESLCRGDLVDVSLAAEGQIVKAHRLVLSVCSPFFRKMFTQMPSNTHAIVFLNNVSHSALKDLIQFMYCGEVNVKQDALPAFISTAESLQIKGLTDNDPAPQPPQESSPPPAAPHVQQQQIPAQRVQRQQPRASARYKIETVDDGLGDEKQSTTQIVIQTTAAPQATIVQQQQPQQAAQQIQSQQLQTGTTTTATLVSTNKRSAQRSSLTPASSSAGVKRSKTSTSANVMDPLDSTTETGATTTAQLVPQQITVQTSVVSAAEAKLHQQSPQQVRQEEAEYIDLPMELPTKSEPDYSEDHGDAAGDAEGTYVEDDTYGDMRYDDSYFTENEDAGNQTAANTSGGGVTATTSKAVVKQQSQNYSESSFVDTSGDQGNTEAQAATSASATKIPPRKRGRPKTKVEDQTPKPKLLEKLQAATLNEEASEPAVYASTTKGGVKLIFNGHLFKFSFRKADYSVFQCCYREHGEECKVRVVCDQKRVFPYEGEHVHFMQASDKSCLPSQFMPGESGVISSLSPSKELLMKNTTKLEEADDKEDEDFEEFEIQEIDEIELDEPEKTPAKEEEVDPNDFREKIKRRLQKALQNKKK

T3: CP190, endogenous in S2 cells (Drosophila (endogenous in S2 cells)) (UniProt Q24478)
T3 sequence: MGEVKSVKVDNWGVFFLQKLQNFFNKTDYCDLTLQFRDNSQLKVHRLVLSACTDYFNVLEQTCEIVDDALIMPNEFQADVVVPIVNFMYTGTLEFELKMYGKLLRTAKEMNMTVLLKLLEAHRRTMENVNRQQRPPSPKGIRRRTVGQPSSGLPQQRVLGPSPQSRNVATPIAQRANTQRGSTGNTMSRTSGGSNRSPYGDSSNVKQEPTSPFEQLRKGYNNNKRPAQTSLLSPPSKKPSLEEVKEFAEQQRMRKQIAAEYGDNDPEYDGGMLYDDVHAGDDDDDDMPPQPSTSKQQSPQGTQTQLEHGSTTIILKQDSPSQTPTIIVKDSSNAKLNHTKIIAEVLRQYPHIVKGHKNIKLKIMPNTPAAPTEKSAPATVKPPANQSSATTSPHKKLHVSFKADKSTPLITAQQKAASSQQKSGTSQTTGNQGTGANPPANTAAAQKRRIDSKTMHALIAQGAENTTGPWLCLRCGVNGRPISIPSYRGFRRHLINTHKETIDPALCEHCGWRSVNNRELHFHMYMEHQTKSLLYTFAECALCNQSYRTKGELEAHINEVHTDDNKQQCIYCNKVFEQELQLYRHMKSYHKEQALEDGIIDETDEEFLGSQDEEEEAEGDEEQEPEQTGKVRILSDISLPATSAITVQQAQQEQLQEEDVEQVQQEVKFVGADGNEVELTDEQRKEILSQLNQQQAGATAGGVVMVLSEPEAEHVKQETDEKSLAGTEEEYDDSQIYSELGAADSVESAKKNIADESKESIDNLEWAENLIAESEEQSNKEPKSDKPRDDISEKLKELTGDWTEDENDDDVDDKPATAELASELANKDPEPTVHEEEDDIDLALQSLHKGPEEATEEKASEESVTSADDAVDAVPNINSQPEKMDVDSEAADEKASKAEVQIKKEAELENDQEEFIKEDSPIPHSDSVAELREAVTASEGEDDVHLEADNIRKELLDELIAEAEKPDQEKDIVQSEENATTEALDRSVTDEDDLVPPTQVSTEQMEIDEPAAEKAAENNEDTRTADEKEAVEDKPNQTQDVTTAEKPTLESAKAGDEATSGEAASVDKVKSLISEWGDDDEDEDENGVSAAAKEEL

T4: Mod(mdg4)-67.2, endogenous in S2 cells (Drosophila (endogenous in S2 cells)) (UniProt Q86B87)
T4 sequence: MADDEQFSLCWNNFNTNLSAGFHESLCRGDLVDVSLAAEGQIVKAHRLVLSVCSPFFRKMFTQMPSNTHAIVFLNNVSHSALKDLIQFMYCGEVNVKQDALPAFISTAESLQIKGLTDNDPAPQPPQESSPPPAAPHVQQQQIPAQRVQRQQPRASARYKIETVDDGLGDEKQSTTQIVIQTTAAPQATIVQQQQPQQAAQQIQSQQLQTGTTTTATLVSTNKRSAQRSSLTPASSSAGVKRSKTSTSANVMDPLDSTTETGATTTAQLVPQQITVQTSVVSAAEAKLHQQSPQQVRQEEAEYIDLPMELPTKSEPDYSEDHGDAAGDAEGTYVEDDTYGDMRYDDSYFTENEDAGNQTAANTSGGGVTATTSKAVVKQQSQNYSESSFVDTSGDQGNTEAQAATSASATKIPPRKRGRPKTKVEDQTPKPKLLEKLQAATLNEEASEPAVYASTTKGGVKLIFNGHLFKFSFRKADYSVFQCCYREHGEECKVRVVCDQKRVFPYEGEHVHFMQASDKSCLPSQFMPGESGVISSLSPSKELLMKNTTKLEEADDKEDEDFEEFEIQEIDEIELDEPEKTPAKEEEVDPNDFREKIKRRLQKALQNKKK


Key:
[1] = biological target: T1, CP190-V5 (Drosophila); assay: co-IP; S2 cells coexpressing a FLAG-tagged EAST variant and a V5-tagged insulator protein; precipitation with anti-V5, blot for FLAG
[2] = biological target: T2, Mod(mdg4)-67.2-V5 (Drosophila); assay: as above
[3] = biological target: T3, CP190, endogenous in S2 cells (Drosophila (endogenous in S2 cells)); assay: co-IP; S2 cells transfected with FLAG-tagged EAST variants; precipitation with antibodies raised to Su(Hw), Mod(mdg4)-67.2 or CP190 (endogenous proteins), blot for FLAG
[4] = biological target: T4, Mod(mdg4)-67.2, endogenous in S2 cells (Drosophila (endogenous in S2 cells)); assay: as above
[5] = biological target: EAST^1-1995 (yeast two-hybrid fusion) (Drosophila); assay: two-hybrid; yeast pJ694A; fusions to GAL4-activating or DNA-binding domains; growth at 30°C on media without tryptophan, leucine, histidine and adenine (high stringency) or without tryptophan, leucine, histidine and with 5 mM 3-aminotriazole (medium stringency)
[6] = biological target: EAST^1-933 (yeast two-hybrid fusion) (Drosophila); assay: as above
[7] = biological target: EAST^1995-2362 (yeast two-hybrid fusion) (Drosophila); assay: as above
[8] = biological target: EAST^933-1995 (yeast two-hybrid fusion) (Drosophila) (UniProt Q9NGR9); assay: as above
[9] = biological target: EAST^933-2362 (yeast two-hybrid fusion) (Drosophila); assay: as above

binding [1] | binding [2] | binding [3] | binding [4] | binding [5] | binding [6] | binding [7] | binding [8] | binding [9] | Molecule
binds | binds | binds | binds |  |  |  |  |  | EAST tagged with a triple FLAG epitope (EAST-FLAG), full length (Drosophila)
binds | binds | binds | binds |  |  |  |  |  | EAST^1-1995-FLAG (Drosophila) (domain or fragment)
binds | binds | binds | binds |  |  |  |  |  | EAST^933-2362-FLAG (Drosophila) (domain or fragment)
 |  |  |  | no binding | no binding | no binding | no binding | no binding | Su(Hw) (yeast two-hybrid fusion) (protein, UniProt P08970 1-941) MSASKEGKEKKGKLLGVENISPPKDKRPATRMKLLNDVGAGEDSEASTTTTTSRTPSNKQEKRGSVAGSRIKILNEEILGTPKTEKRGATKSTAPAASTVKILNEKKTPSATVTAVETTKIKTSPSKRKKMEHYVLQAVKSENTKADTTVTVVTEEDDTIDFILADDEEVVPGRIENNNGQEIVVTEDDEDLGEDGDEDGEDSSGKGNSSQTKIKEIVEHVCGKCYKTFRRVQSLKKHLEFCRYDSGYHLRKADMLKNLEKIEKDAVVMEKKDICFCCSESYDTFHLGHINCPDCPKSFKTQTSYERHIFITHSEFSDFPCSICNANLRSEALLALHEEQHKSRGKPYACKICGKDFTRSYHLKRHQKYSSCSSNETDTMSCKVCDRVFYRLDNLRSHLKQHLGTQVVKKPEYMCHTCKNCFYSLSTLNIHIRTHTGEKPFDCDLCDKKFSALVALKKHRRYHTGEKPYSCTVCNQAFAVKEVLNRHMKRHTGERPHKCDECGKSFIQATQLRTHSKTHIRPFPCEQCDEKFKTEKQLERHVKTHSRTKRPVFSCAECKRNFRTPALLKEHMDEGKHSPKQQRSSMRSAVKIMERTDCAICDKNFDSSDTLRRHIRTVHECDPDDIFGVEPHPSKRAKKDIESEEVVPVALNTSAGSLISSQTDGNGVVVREFLVDEGDGAAQTITLENETYTILPLDGAIEGEQLTDEAGVKPEAKKEEAQVSPVVKKEQRKSLAASLAAAIADNLEESCSEDDFSGEILTEEDIKLKENVGKLIDMLVDPPILKKYGWPNAPEETVLCKVIENCGHDLTKGGENYAELDYGSRMREYCKLLFTVVIHNDSIKSLLNNFPIDDVIEYVLGDEDQDEGGLDKDNESHSGDEEAVSVTGETKTNEIREKPEKKEVSAKSEKKEIVGKAVDKDNSEEVVRENKKKPVGEQEKA
